Data source: PubChem BioAssay AID652248 (Drosophila RNAi Screening Center, 2013)
The deposit covers 863 reagents; this is an unselected part. 32 of them (3.7%) were called active. 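Calls also used reproducibility and a similarity ranking whose scores are not deposited; many active genes show only modest elongated scores.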 Entries without a mark were called inactive. Further read-outs or replicates are left out here. Not stated in the record: the amount of reagent, the time to read-out.

Purpose: 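Kinases and phosphatases whose loss pushes fly blood cells toward elongated shapes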 (primary screen)
Cells: cultured Drosophila hemocytes
Reagents: long dsRNA against Drosophila genes
Measurement: 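Automated microscopy of stained actin, tubulin and nuclei; single-cell shape measures assigned to five reference shape types, giving a score per dsRNA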
Direction: elongated score: higher = more elongated bipolar cells
Call rule: 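a gene counts as active when its knock-down clearly increases the elongated score; a low similarity score was then used to rank the actives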

CycA (Cyclin A) [SID104188924]: elongated score, rep 1 = -0.47
CycA (Cyclin A) [SID104190915]: elongated score, rep 1 = 0.3
PIP5K59B (Phosphatidylinositol 4-phosphate 5-kinase 59B) [SID104184195]: elongated score, rep 1 = -0.53
CG11437 [SID104191451]: elongated score, rep 1 = 1.68
CG6805 [SID104186803]: elongated score, rep 1 = -0.53
CG6805 [SID104207896]: elongated score, rep 1 = 0.84
Adck1 (aarF domain containing kinase 1) [SID104184186]: elongated score, rep 1 = -0.07
Myt1 [SID104191020]: elongated score, rep 1 = -0.53 (active)
Myt1 [SID104208615]: elongated score, rep 1 = 4.4 (active)
Alp13 (Alkaline phosphatase 13) [SID104195573]: elongated score, rep 1 = -0.53
CG3277 [SID104180380]: elongated score, rep 1 = 0.03
twf (twinfilin) [SID104195258]: elongated score, rep 1 = -0.12
CycE (Cyclin E) [SID104183087]: elongated score, rep 1 = 0.47
CycE (Cyclin E) [SID104183088]: elongated score, rep 1 = -0.53
CG9222 [SID104182950]: elongated score, rep 1 = -0.21
aurA (aurora A) [SID104196697]: elongated score, rep 1 = -0.07
aurA (aurora A) [SID104205715]: elongated score, rep 1 = -0.4
rg (rugose) [SID104197518]: elongated score, rep 1 = 0.08; elongated score, rep 2 = -0.53
rg (rugose) [SID104207688]: elongated score, rep 1 = 3.47
PKD (Protein Kinase D) [SID104195992]: elongated score, rep 1 = -0.53
Nek2 [SID104197916]: elongated score, rep 1 = 0.79; elongated score, rep 2 = -0.21
Nek2 [SID104205258]: elongated score, rep 1 = -0.33
NiPp1 (Nuclear inhibitor of Protein phosphatase 1) [SID104187099]: elongated score, rep 1 = 0.72
Pkc98E (Protein C kinase 98E) [SID104196583]: elongated score, rep 1 = 0.19
Pkc98E (Protein C kinase 98E) [SID104206855]: elongated score, rep 1 = -0.27

Only “elongated score, rep 1”, for 2 of the entries above:
Adck1 (aarF domain containing kinase 1) [SID104184186]: -0.07
Myt1 [SID104191020]: -0.53 (active)
